Reference: US11739122B2, “Glycopeptide antibiotic compounds, methods for producing the same, and uses thereof” (Academia Sinica, priority 2019, dated 2023)
Where a name gives a salt, the structure may show the parent alone. For part of these data: At least one structure is not confirmed: it was looked up by name or label, or the drawing left a doubt. Some of these results come from one statement about several compounds together.

Assays:
[1] = tested on: VRE ATCC 700221 (vanA type); assay: Thin-section TEM, cell wall morphology; assay type: cell-based, enterococci; settings: VRE ATCC700221, vanA type
Description: Thin-Section Transmission Electron Microscopy (TEM)
An overnight cultured MRSA ATCC 700787, VRE ATCC 700221 or A. baumannii ATCC 19606 was individually sub-cultured into a fresh medium. Bacteria at the exponential phase were treated with a given test compound at a concentration of 4×MIC for 1-4 hour at 37° C. and followed by wash and resuspension in PBS. Bacteria cells for the TEM analysis were prepared as follows: Cells were fixed with 2.5% glutaraldehyde for 30 minutes. After the fixation, cells were washed twice with PBS and fixed with 1% osmium tetraoxide for another 30 minutes. All the buffer was removed with distilled water. The cells were then stained with 1% uranyl acetate and dehydrated with a graded ethanol solution. Cells were embedded in resin. Finally, each sample was cut into thin slices of approximately 90 nm with a glass knife and stained with uranyl acetate. The images of bacterial morphological were recorded.
The cell wall was almost intact but interspersed with holes, where cell fluids outflew leading cells to death. In general, VRE was immune to compound 1 or 2 (>256 μgmL^−1), median sensitive to compound 14 (32 μgmL^−1), but highly sensitive to compound 28 (4 μgmL^−1). […]

A. baumannii ATCC 19606 [2] = assay: MIC, broth microdilution; assay type: cell-based, Acinetobacter baumannii; settings: AB ATCC 19606
Description: Determination of Minimal Inhibitory Concentration (MIC) for Vancomycin, Teicoplanin and Tei-Analogs Versus Selected Strains
MICs were determined by the broth microdilution method. Specifically, 12 Colonies of the test strain were picked up from 18-24 hour agar cultures and freshly inoculated into broth mediums until reaching the turbidity of a 0.5 McFarland standard. The broth culture was adjusted with broth medium to approximately 1×10^8 CFUmL^−1. […] The plates were incubated in 37° C. for 18-24 hours and monitored for the wells of the positive control, where cells grew, and the wells of the negative control, where wells should not grow. The MIC value was determined for the concentration of a test compound, at which there was no visible growth in the well.

A. baumannii ATCC 19606 [3] = assay: Thin-section TEM, cell wall morphology; assay type: cell-based, Acinetobacter baumannii; settings: AB ATCC 19606; 24 50 μM, colistin 3.2 μM, combination 25 μM each

CN[C@H](CC(C)C)C(=O)N[C@H]1C(=O)N[C@@H](CC(N)=O)C(=O)N[C@H]2C(=O)N[C@H]3C(=O)N[C@H](C(=O)N[C@H](C(=O)O)c4cc(O)cc(O)c4-c4cc3ccc4O)[C@H](O)c3ccc(c(Cl)c3)Oc3cc2cc(c3O[C@@H]2O[C@H](CO)[C@@H](O)[C@H](O)[C@H]2O[C@H]2C[C@](C)(N)[C@H](O)[C@H](C)O2)Oc2ccc(cc2Cl)[C@H]1O [Compound 2, vancomycin, reference compound]
sensitivity of VRE to compound (concentration) [1]: > 256 µg/mL

CN(C)[C@H]1C(=O)N[C@@H]2Cc3ccc(c(Cl)c3)Oc3cc4cc(c3O)Oc3ccc(cc3Cl)[C@@H](O[C@@H]3O[C@H](CO)[C@@H](O)[C@H](O)[C@H]3NC(=O)CCCCCCCNC(=N)N)[C@@H]3NC(=O)[C@H](NC(=O)[C@@H]4NC(=O)[C@@H](NC2=O)c2cc(O)cc(c2)Oc2cc1ccc2O)c1ccc(O)c(c1)-c1c(O)cc(O)cc1[C@@H](C(=O)O)NC3=O [Compound 24, r1,Me2-r6,C8-guanidino-Tei]
re-sensitization of AB in contrast to compound 1 and 2 (A. baumannii ATCC 19606 [2]): > 8 folds

NC[C@H]1O[C@H](O[C@H]2[C@H](O)[C@@H](O[C@H]3O[C@H](CO)[C@@H](O)[C@H](N)[C@H]3O)[C@H](N)C[C@@H]2N)[C@H](O)[C@@H](O)[C@@H]1O [kanamycin sulfate, reference compound]
cell membrane/cell wall morphology by TEM (A. baumannii ATCC 19606 [3]): remained enclosed by the roughly intact cell membrane/wall structures, while the area of cytoplasm was severely damaged
